Results as given in patent US8900549B2, “Compositions and methods for delivering a substance to a biological target” (The General Hospital Corporation, priority 2008, dated 2014).
At least one read-out could not be matched to a standard name with certainty. For at least one compound, name, drawing or mass did not settle the structure.

Test system: PtK2 rat kidney cells
Assay: Live cell labeling and confocal imaging of trans-cyclooctene taxol with tetrazine probes
Type: cell-based, rat kangaroo
Description: For live cell studies, PtK2 […] cells were incubated in cell media containing 1 μM trans-cyclooctene taxol for 1 hour at 37° C. After washing with media three times, the cells were exposed to media containing 1 μM tetrazine-BODIPY FL for 20 minutes at room temperature. The cells were then washed and imaged on a confocal microscope. […] Taxol® is known to bind the microtubular networks of cells and there have been several reports of fluorescent taxol derivatives that can be used to image microtubular networks (Evangelio et al., 1998, Cell Motil Cytoskeleton, 39, 73-90; Guy et al., 1996, Chem Biol, 3, 1021-31; Souto et al., 1995, Angew. Chem. Int. Ed., 34, 2710-2712). In addition to tubular structures, the perinuclear region was stained. This staining is due to nonspecific uptake of the taxol analog by intracellular membranes such as the endoplasmic reticulum and Golgi.

Molecule | cell membrane permeability of tetrazine probe
3-(p-Benzylamino)-tetrazine-VT680 Conjugate | non-membrane permeable
Cc1cc(C)n2c1C=C1C=CC(CCC(=O)NCc3ccc(-c4nncnn4)cc3)=[N+]1[B-]2(F)F [tetrazine-BODIPY FL] | able to penetrate the cell membrane
